Data on 2 molecules can be found in publication PMC8595886.

By UniProt entry, the sequences of proteins in these tests, tags left out.
UniProt Q96EP0: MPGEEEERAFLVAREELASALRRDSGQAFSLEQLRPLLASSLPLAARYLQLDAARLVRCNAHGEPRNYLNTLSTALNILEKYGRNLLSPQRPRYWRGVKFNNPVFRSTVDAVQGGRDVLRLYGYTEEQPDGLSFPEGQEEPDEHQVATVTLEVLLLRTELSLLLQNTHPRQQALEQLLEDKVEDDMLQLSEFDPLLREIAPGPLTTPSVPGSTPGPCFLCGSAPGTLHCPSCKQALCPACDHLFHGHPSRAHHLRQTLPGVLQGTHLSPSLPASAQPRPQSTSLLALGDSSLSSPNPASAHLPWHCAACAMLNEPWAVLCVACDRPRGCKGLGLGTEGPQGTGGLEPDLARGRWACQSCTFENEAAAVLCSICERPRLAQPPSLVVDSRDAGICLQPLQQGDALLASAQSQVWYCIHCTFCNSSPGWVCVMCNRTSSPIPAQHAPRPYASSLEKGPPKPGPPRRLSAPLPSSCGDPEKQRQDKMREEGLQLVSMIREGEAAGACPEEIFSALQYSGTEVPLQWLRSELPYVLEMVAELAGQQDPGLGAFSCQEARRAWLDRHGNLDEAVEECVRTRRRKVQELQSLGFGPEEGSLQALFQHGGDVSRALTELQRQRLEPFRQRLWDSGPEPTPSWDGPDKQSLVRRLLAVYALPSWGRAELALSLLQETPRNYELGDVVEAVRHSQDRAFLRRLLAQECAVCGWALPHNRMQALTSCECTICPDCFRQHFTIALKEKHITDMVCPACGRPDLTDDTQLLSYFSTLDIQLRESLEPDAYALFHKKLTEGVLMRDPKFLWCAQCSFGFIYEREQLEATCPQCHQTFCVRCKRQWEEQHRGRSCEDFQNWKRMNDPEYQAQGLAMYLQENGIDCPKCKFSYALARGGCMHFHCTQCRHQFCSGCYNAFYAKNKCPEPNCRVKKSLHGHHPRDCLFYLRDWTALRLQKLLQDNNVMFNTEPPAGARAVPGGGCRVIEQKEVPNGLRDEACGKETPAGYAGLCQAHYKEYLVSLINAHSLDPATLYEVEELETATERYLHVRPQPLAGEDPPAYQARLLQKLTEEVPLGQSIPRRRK

The test concerns the target Myc-tagged HOIP WT (HOIL-1-interacting protein) (UniProt Q96EP0). As to the kind of experiment: co-IP; 293T cells transiently co-transfected with Flag-tagged SHARPIN (WT or R274W) and Myc-tagged HOIP; immunoprecipitated with anti-Myc antibody, western blot (Fig. 4A). (In western blotting, separated proteins are transferred to a membrane and probed.)

No constants are given. Whether binding was seen depends on the method and setting. Binding seen in cells or lysates may run through a third protein. Some binding calls cover weakened binding; strength is not graded here. Sequences can lack the tags named with a protein.

B1: Flag-tagged SHARPIN WT (SHANK-associated RH Domain Interactor) (protein, UniProt Q9H0F6-1 1-387)
chain: MAPPAGGAAAAASDLGSAAVLLAVHAAVRPLGAGPDAEAQLRRLQLSADPERPGRFRLELLGAGPGAVNLEWPLESVSYTIRGPTQHELQPPPGGPGTLSLHFLNPQEAQRWAVLVRGATVEGQNGSKSNSPPALGPEACPVSLPSPPEASTLKGPPPEADLPRSPGNLTEREELAGSLARAIAGGDEKGAAQVAAVLAQHRVALSVQLQEACFPPGPIRLQVTLEDAASAASAASSAHVALQVHPHCTVAALQEQVFSELGFPPAVQRWVIGRCLCVPERSLASYGVRQDGDPAFLYLLSAPREAPATGPSPQHPQKMDGELGRLFPPSLGLPPGPQPAASSLPSPLQPSWSCPSCTFINAPDRPGCEMCSTQRPCTWDPLAAAST
In the case of B1, the binding entry is listed as “binds”.

B2: Flag-tagged SHARPIN R274W mutant (protein, UniProt Q9H0F6-1 1-387)
chain: MAPPAGGAAAAASDLGSAAVLLAVHAAVRPLGAGPDAEAQLRRLQLSADPERPGRFRLELLGAGPGAVNLEWPLESVSYTIRGPTQHELQPPPGGPGTLSLHFLNPQEAQRWAVLVRGATVEGQNGSKSNSPPALGPEACPVSLPSPPEASTLKGPPPEADLPRSPGNLTEREELAGSLARAIAGGDEKGAAQVAAVLAQHRVALSVQLQEACFPPGPIRLQVTLEDAASAASAASSAHVALQVHPHCTVAALQEQVFSELGFPPAVQRWVIGWCLCVPERSLASYGVRQDGDPAFLYLLSAPREAPATGPSPQHPQKMDGELGRLFPPSLGLPPGPQPAASSLPSPLQPSWSCPSCTFINAPDRPGCEMCSTQRPCTWDPLAAAST
For the molecule B2, the binding entry is “binds”.
